# Measured values: PubChem BioAssay AID1671190 (National Center for Advancing Translational Sciences (NCATS), 2021)
# By UniProt entry, the sequences of proteins in these tests, tags left out. Where a name states a change or a piece, a line headed by the entry shows the natural chain unless it says otherwise.
# UniProt P18054: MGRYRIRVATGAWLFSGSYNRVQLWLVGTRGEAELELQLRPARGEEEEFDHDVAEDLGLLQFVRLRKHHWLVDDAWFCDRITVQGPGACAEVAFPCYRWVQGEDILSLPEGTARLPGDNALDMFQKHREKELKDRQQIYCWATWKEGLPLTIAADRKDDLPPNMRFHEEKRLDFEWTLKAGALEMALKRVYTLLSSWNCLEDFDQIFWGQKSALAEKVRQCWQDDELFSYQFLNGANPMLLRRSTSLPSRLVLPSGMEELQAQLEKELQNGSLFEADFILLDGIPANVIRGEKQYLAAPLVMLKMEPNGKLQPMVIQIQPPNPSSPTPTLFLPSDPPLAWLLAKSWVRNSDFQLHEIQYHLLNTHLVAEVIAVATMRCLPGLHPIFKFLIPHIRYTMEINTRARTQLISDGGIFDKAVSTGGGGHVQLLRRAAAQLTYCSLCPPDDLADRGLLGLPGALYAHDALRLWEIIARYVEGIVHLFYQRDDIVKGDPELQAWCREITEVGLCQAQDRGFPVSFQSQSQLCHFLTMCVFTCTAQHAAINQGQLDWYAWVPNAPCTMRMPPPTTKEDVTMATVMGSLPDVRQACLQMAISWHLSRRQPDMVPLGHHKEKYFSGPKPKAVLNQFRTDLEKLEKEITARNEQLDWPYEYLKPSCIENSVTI
# Values joined by “and” are separate entries in the source; they are usually repeats but may differ in a detail not shown here. Equal entries are not always repeated. In all, about 580,000 compounds went through this assay and about 6,100 (1.1%) were called active. The inconclusive results got no clear call from the source; some entries with a clear call stand among them for comparison. Calls come from the whole dose curve; as a rule, active = well fitted inhibition curve with a large enough effect; inconclusive = small, poorly fitted or top-dose-only effect, or another doubt; inactive = no such curve, though single readings can be large or run the other way. Potencies of inconclusive entries are doubtful fits and often do not repeat.
# Biological target: Polyunsaturated fatty acid lipoxygenase ALOX12 (Homo sapiens) (UniProt P18054)
# Test: Primary qHTS assay for inhibitors of human arachidonate 12S-lipoxygenase (ALOX12): Round 2
# Conditions: purified 12hLO, xylenol orange hydroperoxide absorbance; activity change, negative = inhibition: at 108 µM (top of the series) unless noted
# Outline: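 Purified human 12hLO at 150 nM in 25 mM Hepes, 0.01% Triton X-100, pH 7.0, preincubated 15 min at room temperature with compound. Reaction started with 40 uM arachidonic acid, 30 min at room temperature. Hydroperoxide measured by Fe-xylenol orange, 573/405 nm absorbance ratio.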
# % is set by controls: 0 for no effect and ±100 for the full control effect; potency is the fitted concentration of half-maximal effect.
Structure (SMILES),"activity change, negative = inhibition",Potency
CC(=O)N1CCN(C(=O)c2cc3ccccc3[nH]2)CC1,inactive: 5.36%,
c1ccc(Nc2cccc(Nc3ccccc3)c2)cc1,,"inconclusive: 8.91 µM [inhibitor, full curve, poor fit]"
CCC(C)Sc1ccc([C@@H]2[C@H]3C(=O)N(CC)C(=O)[C@H]3[C@]3(C(=O)OC)CCCCN23)cc1 (some centres undefined),,"inconclusive: 44.7 µM [inhibitor, partial curve, poor fit]"
O=C(CN1CCc2sccc2C1c1cccs1)Nc1cccc(F)c1 (centres undefined),inactive: 1.63%,
COc1ccc2cc3cc(C(=O)NCCN4CCN(c5ccccc5F)CC4)oc3nc2c1,inactive: 0% [at 57.4 µM],
Cc1ccc(-c2nnc(SCC(=O)N(CC(C)C)c3c(N)n(Cc4ccccc4)c(=O)[nH]c3=O)n2N)cc1,,"inconclusive: 100 µM [inhibitor, partial curve, poor fit]"
Cc1ccc(-n2nnnc2CCl)cc1,,"inconclusive: 31.6 µM [inhibitor, partial curve, poor fit]"
COc1ccc(NC(=O)Nc2cc(F)ccc2C)cc1,,"inconclusive: 44.7 µM [inhibitor, partial curve, poor fit]"
CC(C)C1Nc2ccc(C(=O)O)cc2C2C=CCC21 (centres undefined),,"inconclusive: 44.7 µM [inhibitor, partial curve, poor fit]"
COC(=O)c1ccc(CN2CCCC(C(=O)c3cc(F)ccc3OC)C2)cc1 (centres undefined),,"inconclusive: 44.7 µM [inhibitor, partial curve, poor fit]"
CCN(Cc1ccccc1)c1ccc(/C=N/NS(=O)(=O)c2cc(C)ccc2C)cc1,,"inconclusive: 7.94 µM [inhibitor, full curve, poor fit]"
CCn1c(N)c(C(=O)NCC2CCCO2)sc1=S (centres undefined),,"inconclusive: 50.1 µM [inhibitor, partial curve, poor fit]"
C=CCN=C1NC(c2ccccc2C(F)(F)F)C(C(=O)OC)=C(C)N1Cc1ccc(C(F)(F)F)cc1 (centres undefined),,"inconclusive: 79.4 µM [inhibitor, partial curve, poor fit]"
CCCNc1ncnc2c1c(-c1ccccc1)cn2-c1ccccc1,,"inconclusive: 141 µM [inhibitor, partial curve, poor fit]"
CCS(=O)(=O)Nc1ccc2[nH]c(O)c(C(=Nc3ccc(CN4CCCCC4)cc3)c3ccccc3)c2c1,inactive: -30% [at 57.4 µM],
O=C1CCC(C(=O)OC(C(=O)Nc2cc(Cl)cc(Cl)c2)c2ccccc2)=NN1 (centres undefined),,"inconclusive: 28.2 µM [inhibitor, single point]"
O=C(Nc1ccc(-c2nc3ncccc3o2)cc1)c1ccc(Br)o1,,"inconclusive: 5.62 µM [inhibitor, single point]"
CCN(Cc1noc(C2CCC2)n1)C(=O)C1CCN(c2ccccc2)C1=O (centres undefined),inactive: -16%,
O=C(Nc1ccc(CN2CCOCC2)cc1)c1ccco1,inactive: -4%,
COc1ccc(CN2CC3ON=C(C(=O)O)C3C2)cc1 (centres undefined),,"inconclusive: 11.2 µM [inhibitor, full curve, poor fit]"
CN1CCN(C2=Cc3ccccc3Oc3ccc(Cl)cc32)CC1,inconclusive: -58% [inhibitor],"inconclusive: 39.8 µM [inhibitor, partial curve, poor fit]"

# Molecules listed so far that have a COOH group, in the order listed:
Structure (SMILES),"activity change, negative = inhibition",Potency
CC(C)C1Nc2ccc(C(=O)O)cc2C2C=CCC21 (centres undefined),,"inconclusive: 44.7 µM [inhibitor, partial curve, poor fit]"
COc1ccc(CN2CC3ON=C(C(=O)O)C3C2)cc1 (centres undefined),,"inconclusive: 11.2 µM [inhibitor, full curve, poor fit]"

# In a second layout: entries from further up.
Structure (SMILES)	activity change, negative = inhibition	Potency
c1ccc(Nc2cccc(Nc3ccccc3)c2)cc1		inconclusive: 8.91 µM [inhibitor, full curve, poor fit]
CC(C)C1Nc2ccc(C(=O)O)cc2C2C=CCC21 (centres undefined)		inconclusive: 44.7 µM [inhibitor, partial curve, poor fit]

# Carrying on:

Structure (SMILES),"activity change, negative = inhibition",Potency
N=C(C[C@@H](O)COc1ccccc1-c1ccccc1)N1CCCCC1,,"inconclusive: 35.5 µM [inhibitor, single point]"
C[C@]12CC[C@@H]3c4ccc(O)cc4CC[C@H]3[C@@H]1CC[C@@H]2OC(=O)CCC1CCCC1,,"inconclusive: 20 µM [inhibitor, partial curve, poor fit]"
COCCN1C(=O)N[C@@H](CCc2ccccc2)[C@@H](C(=O)OC)[C@H]1C,,"inconclusive: 112 µM [inhibitor, single point]"
Cc1cc(O)cc(O)c1-c1onc(C(F)(F)F)c1-c1cscn1,,"inconclusive: 100 µM [inhibitor, single point]"
CCCCCc1cc(O)c2c(C)cc(=O)oc2c1,,"inconclusive: 141 µM [inhibitor, partial curve, poor fit]"
COC(=O)c1cc(C#N)c(N2CCCC(O)(CN(C)C)CC2)nc1C (centres undefined),,"inconclusive: 1.41 µM [inhibitor, full curve, poor fit]"
Nc1nc(Nc2ccccc2)sc1C(=O)c1ccc(Cl)cc1,,"inconclusive: 100 µM [inhibitor, partial curve, poor fit]"
c1ccc(C(c2nnnn2Cc2cccs2)N2CCN(C3CCCC3)CC2)cc1 (centres undefined),inactive: 0%,
O=C1NC(=S)S/C1=C\c1ccc(SCc2ccccc2)o1,,active: 12.6 µM
CCCCNC(=O)C[C@@H]1C[C@@]2(C(=O)OCC)CCC=C2N(Cc2ccc3c(c2)OCO3)C1=O,,"inconclusive: 141 µM [inhibitor, partial curve, poor fit]"
O=C(COC(=O)CC1CC2CCC1C2)Nc1ccccc1[N+](=O)[O-] (centres undefined),inactive: -6.67%,
CN(C)CCCN(C(=O)CCc1ccccc1)c1nc2ccc(Br)cc2s1,,"inconclusive: 112 µM [inhibitor, single point]"
CNC(=O)[C@@H](Cc1ccccc1)N1CCC[C@H]1C(=O)N1CCC1,,active: 22.4 µM
Clc1cccc(-c2sc(Nc3ccccc3)n[n+]2-c2ccccc2)c1Cl,,"inconclusive: 50.1 µM [inhibitor, partial curve, poor fit]"
COc1ccc(Cl)cc1NC(=S)NCc1ccccn1,inactive: 5.91%,
O=Cc1c(-c2ccc(Cl)cc2Cl)[nH]c2ccccc12,,"inconclusive: 44.7 µM [inhibitor, partial curve, poor fit]"
O=C(CCn1c(=S)oc2ccccc21)Nc1ccccc1Br,,"inconclusive: 126 µM [inhibitor, partial curve, poor fit]"
CCOC(=O)C(C)n1nc(/C=C/c2ccc(OC)cc2)ccc1=O (centres undefined),,"inconclusive: 0.282 µM [inhibitor, full curve, poor fit]"
Cc1cc(NC(=O)c2c(F)cccc2F)n(-c2nc3ccccc3[nH]2)n1,inactive: 26%,
COc1ccc(C2=NN(CCC(=O)NCCc3ccccc3)C(=O)CC2)cc1,inactive: 0.128%,
Cc1nc2ccccn2c1/C(O)=C1\C(=O)C(=O)N(CCN2CCOCC2)C1c1cccnc1 (centres undefined),,"inconclusive: 31.6 µM [inhibitor, partial curve, poor fit]"

Structure (SMILES),"activity change, negative = inhibition",Potency
O=C(N/N=C/C=C/c1ccccc1)NC1CCCCC1,inactive: 0%,
Cc1ccc(Cn2cc(CCC(=O)NCC(C)c3ccccc3)c3ccccc32)cc1 (centres undefined),,"inconclusive: 112 µM [inhibitor, partial curve, poor fit]"
COc1cccc(NC(=S)N2CCN(S(C)(=O)=O)CC2)c1,,"inconclusive: 112 µM [inhibitor, partial curve, poor fit]"
CCC(NC(C)C)C(O)c1ccc(O)c(O)c1 (centres undefined),,"active: 10 µM and inconclusive: 44.7 µM [inhibitor, partial curve, poor fit]"
Cc1nn(Cc2ccc(Cl)cc2)c(C)c1NC(=O)c1cc(-c2ccco2)on1,,"inconclusive: 44.7 µM [inhibitor, partial curve] and inconclusive: 56.2 µM [inhibitor, partial curve, poor fit]"
O=C(Nc1ccccc1C(=O)O)c1cc(S(=O)(=O)Nc2ccccc2)ccc1Cl,,"inconclusive: 44.7 µM [inhibitor, partial curve, poor fit]"
O=C(N=Nc1c(O)[nH]c2ccccc12)Nc1ccccc1,,"inconclusive: 100 µM [inhibitor, single point]"
CC1CCCN(c2ccc(C(=O)O)cc2NS(=O)(=O)c2ccc(Br)s2)C1 (centres undefined),,active: 5.62 µM
O=C(Nc1nc2c(F)cc(F)cc2s1)C1CCN(C(=O)c2ccc(F)cc2)CC1,,"inconclusive: 44.7 µM [inhibitor, partial curve, poor fit]"
COc1ccc(S(=O)(=O)NC[C@H]2COCc3nc4cc(C)ccc4n32)cc1,,"inconclusive: 28.2 µM [inhibitor, full curve, poor fit]"
O=C(NCc1n[nH]c(=S)n1-c1cccc(C(F)(F)F)c1)c1ccc(S(=O)(=O)N2CCCC2)cc1,,"inconclusive: 100 µM [inhibitor, single point]"
Cc1ccc(NC(=O)CN(C)C(=O)c2ccc(Cl)c(S(=O)(=O)NCc3ccco3)c2)cc1,,"inconclusive: 158 µM [inhibitor, partial curve, poor fit]"
O=C(CN1CCc2ccccc2C1)N1CCN(S(=O)(=O)c2ccccc2)CC1,,"inconclusive: 112 µM [inhibitor, single point]"
Cc1ncc(-c2ccc(C)c(S(=O)(=O)Nc3ccc(OC(F)(F)F)cc3)c2)o1,inactive: -12.5%,
CCN(CC(=O)NCc1cccs1)C(=O)c1ccc(-c2cccc(C(F)(F)F)c2)o1,,"inconclusive: 100 µM [inhibitor, partial curve, poor fit]"
CCc1c(C)sc(NC(=O)c2cccs2)c1C(N)=O,,active: 20 µM
Cc1ccc(S(=O)(=O)N2CC3=C(C2)C2CC2(C)C3)cc1 (centres undefined),,"inconclusive: 89.1 µM [inhibitor, partial curve, poor fit]"
CCc1ccc(/C=N/NC(=S)NCCc2ccccc2)cc1,,active: 22.4 µM
Cc1[nH]n(-c2ccccc2)c(=O)c1/C=N/c1ccccn1,,"inconclusive: 22.4 µM [inhibitor, partial curve, poor fit]"
CNC(=O)NC(=O)C(C)n1cnc2c1c(=O)n(C)c(=O)n2C (centres undefined),inactive: 4.53%,
O=C(c1cccc(Cl)c1)N1CCC2CC1c1cc(-c3ccccc3)ccc12 (centres undefined),,"inconclusive: 44.7 µM [inhibitor, partial curve, poor fit]"
